Record: PubChem BioAssay AID1259308 (NCATS, 2017)
Shown is an unselected part of about 59,000 deposited reagents. Over the whole deposit, about 1,510 (2.6%) are marked active. 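Calls use total luciferase alone and ignore viability, so some active siRNAs may act by altering cell number.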 Entries without a mark were called inactive. The numbers tell different reagents against one gene apart. No sequences are given here.

- Aim: 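Genes whose loss raises luciferase production in HEK293 cells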 (primary screen)
- System: human HEK293 embryonic kidney cells stably expressing firefly luciferase (HEK-CMV-Luc2-Hygro)
- Reagents: single siRNA against human genes, 0.8 pmol siRNA per well
- Time to read-out: 72 h
- Read-out: 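Reporter luminescence and viable-cell signal on separate replicate plates, given as percent of non-targeting control and median/MAD z-scores, plus per-cell luciferase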
- Reading the numbers: total luciferase, z-score and total luciferase, % of control: higher = more reporter protein produced; luciferase per cell, z-score: higher = more reporter output per viable cell; viable cells, % of control: higher = more viable cells
- Active means: 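An siRNA counts as active if its total luciferase robust z-score exceeds 3; genes with two or more such siRNAs out of three were retested with fresh siRNAs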
- Meaning of the calls: active = raised luciferase; inactive = no rise

The first 2 entries as a preview:
no.	gene	siRNA no.	total luciferase, z-score	total luciferase, % of control	luciferase per cell, z-score	viable cells, % of control
1	DNAJC5	1	-0.399	73.9	-0.314	89.8
2	DNAJC5	2	2.41	130	1.88	88.4

The list itself, from the start:
no.	gene	siRNA no.	total luciferase, z-score	total luciferase, % of control	luciferase per cell, z-score	viable cells, % of control
1	DNAJC5	1	-0.399	73.9	-0.314	89.8
2	DNAJC5	2	2.41	130	1.88	88.4
3	DNAJC5	3	0.334	88.5	2.57	50.3
4	RPS6KL1	1	0.895	99.7	1.01	85.4
5	RPS6KL1	2	-0.705	67.9	-0.269	81.4
6	RPS6KL1	3	-0.0324	81.2	-0.646	108
7	DDX41	1	0.154	84.9	0.0422	93.9
8	DDX41	2	2.01	122	0.795	110
9	DDX41	3	0.454	90.9	-0.206	107
10	TCP11L1	1	0.175	85.4	-0.114	98.3
11	TCP11L1	2	-0.614	69.7	-0.849	97.4
12	TCP11L1	3	-0.126	79.4	-0.0506	89.9
13	SLC4A1	1	3.66 (active)	155	2.49	89.7
14	SLC4A1	2	1.47	111	3.16	54
15	SLC4A1	3	1.35	109	1.05	92.1
16	ITGA4	1	-1.11	59.8	-1.78	107
17	ITGA4	2	0.762	97	0.79	88.1
18	ITGA4	3	0.786	97.5	0.0667	107
19	PDP2	1	-0.623	69.5	0.342	71
20	PDP2	2	-0.812	65.7	-1.29	103
21	PDP2	3	1.04	103	0.725	94.7
22	DRC9	1	-0.735	67.3	-0.01	75.4
23	DRC9	2	-0.153	78.9	-0.639	104
24	DRC9	3	0.394	89.7	0.0631	98.6
25	SOCS5P5	1	0.617	94.2	0.586	90.2
26	SOCS5P5	2	1.31	108	1.08	90.9
27	SOCS5P5	3	0.409	90	0.343	91.9
28	EIF1P3	1	-1.79	46.3	-0.037	52.2
29	EIF1P3	2	-0.721	67.5	-0.0503	76.5
30	EIF1P3	3	0.347	88.8	0.827	79.8
31	NKPD1	1	1.38	109	1.52	82
32	NKPD1	2	-0.253	76.9	-0.208	90.7
33	NKPD1	3	-0.486	72.2	-0.0122	81
34	CYBB	1	-0.719	67.6	-0.885	95.3
35	CYBB	2	2.97	141	2.08	90.9
36	CYBB	3	0.299	87.8	-0.233	104
37	SPRYD3	1	0.571	93.2	0.45	92.6
38	SPRYD3	2	0.00455	82	-0.679	110
39	SPRYD3	3	0.952	101	0.684	94.1
